Data reported in patent US20050064430A1.
Results are given in words; binding and its absence hold for the method and conditions named. For part of these data: In cells and extracts the contact can be indirect. Some results given as binding are weak or reduced against the parent protein; the word gives no strength.

Key:
[1] = biological target: recombinant Rab3 GEP (from insect cells) (UniProt O08873); test: Western blotting (legend of FIG. 4)
[2] = biological target: recombinant Rab3 GEP (from insect cells) (UniProt O08873); test: conclusion from the bead binding assay and co-immunoprecipitation
[3] = biological target: recombinant Rab3 GEP (from insect cells) (UniProt O08873); test: recombinant Rab3 GEP incubated with recombinant rabconnectin-3β on antibody/protein A Sepharose beads; SDS-PAGE, Coomassie staining or Western blot

Measured: binding

recombinant rabconnectin-3β (pFastBac HTa rabconnectin-3β, baculovirus, High Five insect cells) (from UniProt Q9Y4E6 1-1490)
binds: all assays above
